According to PMC11696143, “A higher order PUF complex is central to regulation of C. elegans germline stem cells” (Nature Communications, 2024):
Numbering of substitutions follows the chain as printed. For part of these data: Where a protein sequence is shown, tags need not be part of it. For at least one entry, the source does not settle the construct or the ends of the probe. For part of these data: At least one verdict was read from the data and is not stated in words by the source.

Key:
[1] = tested on: FBF-2 RBD + LST-1 19-98 S26C; assay: FRET; conditions: 2 uM FBF-2 RBD, lower FRET than S74C (geometry, not affinity); recombinant protein; protein details: His-SUMO, removed by TEV,Cy5-maleimide on C26; label: 5'-Cy3
[2] = biological target: T1, FBF-2 RBD (Caenorhabditis elegans) (UniProt Q09312); assay: EMSA; conditions: EMSA: 5 nM RNA, 10 mM HEPES pH 7.4, 75 mM NaCl, 0.01% Tween 20, 0.1 mg/ml BSA, 0.1 mg/ml yeast tRNA, 2 mM DTT, 4 C overnight, recombinant protein, residues 164-575, protein details: His-SUMO, removed by TEV, label: 3'-Cy5
T1 sequence (looked up): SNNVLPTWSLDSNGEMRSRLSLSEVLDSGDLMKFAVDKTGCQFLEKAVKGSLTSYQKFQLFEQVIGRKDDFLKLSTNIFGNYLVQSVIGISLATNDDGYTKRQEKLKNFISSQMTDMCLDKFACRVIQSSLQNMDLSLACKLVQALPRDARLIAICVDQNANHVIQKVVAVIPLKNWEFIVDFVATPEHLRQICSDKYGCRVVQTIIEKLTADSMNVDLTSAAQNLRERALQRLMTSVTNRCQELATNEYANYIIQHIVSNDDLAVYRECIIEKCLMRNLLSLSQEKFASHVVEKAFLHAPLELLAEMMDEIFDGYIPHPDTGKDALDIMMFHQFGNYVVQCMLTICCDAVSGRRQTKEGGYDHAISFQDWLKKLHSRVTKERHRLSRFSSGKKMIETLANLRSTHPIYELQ

[3] = biological target: T2, FBF-2 RBD+CT (Caenorhabditis elegans) (UniProt Q09312); assay: EMSA; conditions: EMSA: 5 nM RNA, 10 mM HEPES pH 7.4, 75 mM NaCl, 0.01% Tween 20, 0.1 mg/ml BSA, 0.1 mg/ml yeast tRNA, 2 mM DTT, 4 C overnight, recombinant protein, residues 164-632, protein details: His6-SUMO, removed by Ulp1, label: 3'-Cy5
T2 sequence (looked up): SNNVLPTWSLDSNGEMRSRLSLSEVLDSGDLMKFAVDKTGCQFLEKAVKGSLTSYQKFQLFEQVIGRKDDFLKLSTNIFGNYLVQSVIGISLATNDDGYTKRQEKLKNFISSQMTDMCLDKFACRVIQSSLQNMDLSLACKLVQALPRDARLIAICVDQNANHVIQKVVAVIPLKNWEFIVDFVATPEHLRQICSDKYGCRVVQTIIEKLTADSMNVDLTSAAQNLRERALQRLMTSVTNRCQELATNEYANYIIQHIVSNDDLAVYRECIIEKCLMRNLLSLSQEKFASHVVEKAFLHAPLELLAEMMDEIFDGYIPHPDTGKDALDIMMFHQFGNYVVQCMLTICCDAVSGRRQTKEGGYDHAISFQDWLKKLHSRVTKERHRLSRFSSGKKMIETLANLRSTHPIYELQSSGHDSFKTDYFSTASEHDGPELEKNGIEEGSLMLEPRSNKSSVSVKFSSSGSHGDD

[4] = tested on: FBF-2 RBD+CT + LST-1 19-50 (PIM-A); assay: EMSA; conditions: 150 uM LST-1 19-50; EMSA: 5 nM RNA, 10 mM HEPES pH 7.4, 75 mM NaCl, 0.01% Tween 20, 0.1 mg/ml BSA, 0.1 mg/ml yeast tRNA, 2 mM DTT, 4 C overnight; recombinant protein; label: …
[5] = tested on: FBF-2 RBD+CT + LST-1 67-98 (PIM-B); assay: EMSA; conditions: 50 uM LST-1 67-98; EMSA: 5 nM RNA, 10 mM HEPES pH 7.4, 75 mM NaCl, 0.01% Tween 20, 0.1 mg/ml BSA, 0.1 mg/ml yeast tRNA, 2 mM DTT, 4 C overnight; recombinant protein; label: …
[6] = biological target: T3, FBF-2 RBD+CT L610A (Caenorhabditis elegans) (UniProt Q09312); assay: EMSA; conditions: EMSA: 5 nM RNA, 10 mM HEPES pH 7.4, 75 mM NaCl, 0.01% Tween 20, 0.1 mg/ml BSA, 0.1 mg/ml yeast tRNA, 2 mM DTT, 4 C overnight; recombinant protein; residues 164-632; label: 3'-Cy5
T3 sequence (looked up): T2 sequence (looked up) with L447A

## AUCAUGUGCCAUACAUCAUGUUGCCAUUU [gld-1 FBEa-FBEa* (FRET)]
[1]
  binding result: binds

## AUCAACAGCCAUACAUCAACAUGCCAUUU [FBEam-FBEa*m]
[2]; apparent Kd
  Kd: > 2.5 µM

## AUCAACAGCCAUACAUCAUGUUGCCAUUU [FBEam-FBEa*]
[3]; apparent Kd
  Kd: > 5 µM
[2]; apparent Kd, Hill fit
  Kd: 0.323 µM

## AUCAUGUUGCCAUUU [gld-1 FBEa* (EMSA)]
[3]
  Kd: > 2.5 µM
[2]
  Kd: 0.427 µM
[4]
  Kd: > 2.5 µM
[5]
  Kd: 0.3 µM
[6]
  Kd: 0.385 µM
